Test results from the supplement of paper PMC5355238.
Counter-ions that a name gives are not always drawn. This is one part of the list. Most entries show no effect beyond the scatter of the controls.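 Reh is a human leukemia cell line; the read-out is the median γH2AX antibody signal in S-phase cells by flow cytometry, with the score counting standard deviations from the median difference of each paired set of plates. Scores above 2.5 were called candidate hits, while scores below -2 mark compounds that lowered the MK1775-induced damage.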

system: Reh; test: Z' of S-phase gammaH2AX difference (drug + MK1775 minus drug alone) (Z-score); higher = stronger synergistic S-phase DNA damage with MK1775; details: MK1775 concentration 400 nM; first compound 10 µM; 4 h

SMILES	Z' of S-phase gammaH2AX difference (Z-score)
N[C@@H](Cc1c[nH]c2ccccc12)C(=O)O [L-Tryptophan] + C=CCn1c(=O)c2cnc(Nc3ccc(N4CCN(C)CC4)cc3)nc2n1-c1cccc(C(C)(C)O)n1 [MK1775]	inactive: 0.0988
COC1(C2=NCCN2)COc2ccccc2O1 (stereo unspecified) + C=CCn1c(=O)c2cnc(Nc3ccc(N4CCN(C)CC4)cc3)nc2n1-c1cccc(C(C)(C)O)n1 [MK1775]	inactive: -0.0131
CC(C)NC[C@@H](O)COc1ccc(CC(N)=O)cc1 [R(+)-Atenolol] + C=CCn1c(=O)c2cnc(Nc3ccc(N4CCN(C)CC4)cc3)nc2n1-c1cccc(C(C)(C)O)n1 [MK1775]	inactive: -0.431
COc1cc2nccc(Oc3ccc(NC(=O)NC4CC4)c(Cl)c3)c2cc1C(N)=O [E7080 (Lenvatinib)] + C=CCn1c(=O)c2cnc(Nc3ccc(N4CCN(C)CC4)cc3)nc2n1-c1cccc(C(C)(C)O)n1 [MK1775]	inactive: -0.288
CCn1c(=O)[nH]c2cc(Cl)c(Cl)cc21 + C=CCn1c(=O)c2cnc(Nc3ccc(N4CCN(C)CC4)cc3)nc2n1-c1cccc(C(C)(C)O)n1 [MK1775]	inactive: -0.172
CN1C(=O)CC[C@H]1c1cccnc1 [(-)-Cotinine] + C=CCn1c(=O)c2cnc(Nc3ccc(N4CCN(C)CC4)cc3)nc2n1-c1cccc(C(C)(C)O)n1 [MK1775]	inactive: 0.675
CC[C@@H]1C(=O)OC[C@@H]1Cc1cncn1C [Pilocarpine nitrate] + C=CCn1c(=O)c2cnc(Nc3ccc(N4CCN(C)CC4)cc3)nc2n1-c1cccc(C(C)(C)O)n1 [MK1775]	inactive: -0.349
CC[C@@H]1C(=O)OC[C@@H]1Cc1cncn1C [(+)-Pilocarpine hydrochloride] + C=CCn1c(=O)c2cnc(Nc3ccc(N4CCN(C)CC4)cc3)nc2n1-c1cccc(C(C)(C)O)n1 [MK1775]	inactive: -0.267
CSC(=N)NCCC[C@H](N)C(=O)O [S-Methyl-L-thiocitrulline acetate] + C=CCn1c(=O)c2cnc(Nc3ccc(N4CCN(C)CC4)cc3)nc2n1-c1cccc(C(C)(C)O)n1 [MK1775]	inactive: 0.98
O=c1oc2c(O)c(O)cc3c(=O)oc4c(O)c(O)cc1c4c23 [Ellagic acid] + C=CCn1c(=O)c2cnc(Nc3ccc(N4CCN(C)CC4)cc3)nc2n1-c1cccc(C(C)(C)O)n1 [MK1775]	inactive: 0.0436
NS(=O)(=O)c1cc2c(cc1Cl)NC(C1CC3C=CC1C3)NS2(=O)=O (stereo unspecified) [Cyclothiazide] + C=CCn1c(=O)c2cnc(Nc3ccc(N4CCN(C)CC4)cc3)nc2n1-c1cccc(C(C)(C)O)n1 [MK1775]	inactive: 0.337
S=C(S)N1CCCC1 [Ammonium pyrrolidinedithiocarbamate] + C=CCn1c(=O)c2cnc(Nc3ccc(N4CCN(C)CC4)cc3)nc2n1-c1cccc(C(C)(C)O)n1 [MK1775]	inactive: 0.437
CCN(CC)CC(=O)Nc1c(C)cccc1C [Lidocaine hydrochloride] + C=CCn1c(=O)c2cnc(Nc3ccc(N4CCN(C)CC4)cc3)nc2n1-c1cccc(C(C)(C)O)n1 [MK1775]	inactive: -0.534
c1ccc2c(CC3=NCCN3)cccc2c1 [Naphazoline hydrochloride] + C=CCn1c(=O)c2cnc(Nc3ccc(N4CCN(C)CC4)cc3)nc2n1-c1cccc(C(C)(C)O)n1 [MK1775]	inactive: -0.573
O=C(O)[C@@H]1C[C@H](C(=O)O)N1 [cis-Azetidine-2,4-dicarboxylic acid] + C=CCn1c(=O)c2cnc(Nc3ccc(N4CCN(C)CC4)cc3)nc2n1-c1cccc(C(C)(C)O)n1 [MK1775]	inactive: -0.157
CC(C=CC(=O)NO)=CC(C)C(=O)c1ccc(N(C)C)cc1 (stereo unspecified) [Trichostatin A (TSA)] + C=CCn1c(=O)c2cnc(Nc3ccc(N4CCN(C)CC4)cc3)nc2n1-c1cccc(C(C)(C)O)n1 [MK1775]	inactive: 0.0776
Nc1ncnc2c1nc(Br)n2C1OC2COP(=O)(O)O[C@@H]2C1O (stereo partly specified) [8-Bromo-cAMP sodium] + C=CCn1c(=O)c2cnc(Nc3ccc(N4CCN(C)CC4)cc3)nc2n1-c1cccc(C(C)(C)O)n1 [MK1775]	inactive: 0.0334
Ic1ccc(N2CCN(Cc3c[nH]c4ncccc34)CC2)cc1 [L-750,667 trihydrochloride] + C=CCn1c(=O)c2cnc(Nc3ccc(N4CCN(C)CC4)cc3)nc2n1-c1cccc(C(C)(C)O)n1 [MK1775]	inactive: 1.55

SMILES	Z' of S-phase gammaH2AX difference (Z-score)
O=C(Nc1cccc(C(=O)Nc2ccc(S(=O)(=O)O)c3cc(S(=O)(=O)O)cc(S(=O)(=O)O)c23)c1)Nc1cccc(C(=O)Nc2ccc(S(=O)(=O)O)c3cc(S(=O)(=O)O)cc(S(=O)(=O)O)c23)c1 + C=CCn1c(=O)c2cnc(Nc3ccc(N4CCN(C)CC4)cc3)nc2n1-c1cccc(C(C)(C)O)n1 [MK1775]	inactive: 1.31
COc1cccc2c1C(=O)c1c(O)c3c(c(O)c1C2=O)C[C@@](O)(C(C)=O)C[C@@H]3O[C@H]1C[C@H](N)[C@H](O)[C@H](C)O1 [Daunorubicin HCl (Daunomycin HCl)] + C=CCn1c(=O)c2cnc(Nc3ccc(N4CCN(C)CC4)cc3)nc2n1-c1cccc(C(C)(C)O)n1 [MK1775]	inactive: -0.835
CNC(=O)c1cc(Oc2ccc(NC(=O)Nc3ccc(Cl)c(C(F)(F)F)c3)cc2)ccn1 [Sorafenib (Nexavar)] + C=CCn1c(=O)c2cnc(Nc3ccc(N4CCN(C)CC4)cc3)nc2n1-c1cccc(C(C)(C)O)n1 [MK1775]	inactive: -0.478
COc1ccccc1N1CCN(CCN(C(=O)c2ccc(I)cc2)c2ccccn2)CC1 [p-MPPI hydrochloride] + C=CCn1c(=O)c2cnc(Nc3ccc(N4CCN(C)CC4)cc3)nc2n1-c1cccc(C(C)(C)O)n1 [MK1775]	inactive: 0.577
OCCn1cc(-c2cnc3nnn(Cc4ccc5ncccc5c4)c3n2)cn1 + C=CCn1c(=O)c2cnc(Nc3ccc(N4CCN(C)CC4)cc3)nc2n1-c1cccc(C(C)(C)O)n1 [MK1775]	inactive: 0.154
OC1(c2ccc(Cl)cc2)CCN(Cc2c[nH]c3ccccc23)CC1 + C=CCn1c(=O)c2cnc(Nc3ccc(N4CCN(C)CC4)cc3)nc2n1-c1cccc(C(C)(C)O)n1 [MK1775]	inactive: -0.485
COc1ccc2cc([C@H](C)C(=O)O)ccc2c1 [(-)-Naproxen sodium] + C=CCn1c(=O)c2cnc(Nc3ccc(N4CCN(C)CC4)cc3)nc2n1-c1cccc(C(C)(C)O)n1 [MK1775]	inactive: -0.15
Nc1cc(N2CCCCC2)nc(N)[n+]1[O-] [Minoxidil] + C=CCn1c(=O)c2cnc(Nc3ccc(N4CCN(C)CC4)cc3)nc2n1-c1cccc(C(C)(C)O)n1 [MK1775]	inactive: -0.141
Nc1ncnc2c1ncn2[C@@H]1O[C@H](COP(=O)(O)OP(=O)(O)OP(=O)(O)OP(=O)(O)OC[C@@H]2O[C@H](n3cnc4c(N)ncnc43)C(O)[C@@H]2O)[C@H](O)C1O (stereo partly specified) [P1,P4-Di(adenosine-5')tetraphosphate triammonium] + C=CCn1c(=O)c2cnc(Nc3ccc(N4CCN(C)CC4)cc3)nc2n1-c1cccc(C(C)(C)O)n1 [MK1775]	inactive: -1.27
CCOc1cc(C(=O)Nc2ccc(Cl)c(-c3nc4ccccc4[nH]3)c2)cc(OCC)c1OCC + C=CCn1c(=O)c2cnc(Nc3ccc(N4CCN(C)CC4)cc3)nc2n1-c1cccc(C(C)(C)O)n1 [MK1775]	inactive: -0.0554
C=C[C@H]1CN2CC[C@H]1C[C@H]2[C@H](O)c1ccnc2ccc(OC)cc12 [Quinine sulfate] + C=CCn1c(=O)c2cnc(Nc3ccc(N4CCN(C)CC4)cc3)nc2n1-c1cccc(C(C)(C)O)n1 [MK1775]	inactive: -0.679
O=c1n(CCCN2CCN(c3cccc(Cl)c3)CC2)nc2ccccn12 [Trazodone hydrochloride] + C=CCn1c(=O)c2cnc(Nc3ccc(N4CCN(C)CC4)cc3)nc2n1-c1cccc(C(C)(C)O)n1 [MK1775]	inactive: 0.0988
Oc1ccc(-c2nc(-c3ccc(F)cc3)c(-c3ccncc3)[nH]2)cc1 + C=CCn1c(=O)c2cnc(Nc3ccc(N4CCN(C)CC4)cc3)nc2n1-c1cccc(C(C)(C)O)n1 [MK1775]	inactive: -0.0134
O=C(O)c1ccc2cc(-c3ccc(O)c(C45CC6CC(CC(C6)C4)C5)c3)ccc2c1 + C=CCn1c(=O)c2cnc(Nc3ccc(N4CCN(C)CC4)cc3)nc2n1-c1cccc(C(C)(C)O)n1 [MK1775]	active: 7.31
NC(=O)c1cnccn1 [Pyrazinecarboxamide] + C=CCn1c(=O)c2cnc(Nc3ccc(N4CCN(C)CC4)cc3)nc2n1-c1cccc(C(C)(C)O)n1 [MK1775]	inactive: -0.146
Nc1nc(N)c(N=O)c(OCC2CCCCC2)n1 + C=CCn1c(=O)c2cnc(Nc3ccc(N4CCN(C)CC4)cc3)nc2n1-c1cccc(C(C)(C)O)n1 [MK1775]	inactive: 0.348
O=C(CCNNC(=O)c1ccncc1)NCc1ccccc1 [Nialamide] + C=CCn1c(=O)c2cnc(Nc3ccc(N4CCN(C)CC4)cc3)nc2n1-c1cccc(C(C)(C)O)n1 [MK1775]	inactive: -0.175
N/C(=N\C(=O)c1nc(Cl)c(N)nc1N)NCc1ccccc1 [Benzamil hydrochloride] + C=CCn1c(=O)c2cnc(Nc3ccc(N4CCN(C)CC4)cc3)nc2n1-c1cccc(C(C)(C)O)n1 [MK1775]	inactive: -0.611

Looked up above:
Z' of S-phase gammaH2AX difference (Z-score) with Nc1nc(N)c(N=O)c(OCC2CCCCC2)n1 + C=CCn1c(=O)c2cnc(Nc3ccc(N4CCN(C)CC4)cc3)nc2n1-c1cccc(C(C)(C)O)n1 [MK1775] reads inactive: 0.348
Z' of S-phase gammaH2AX difference (Z-score) with OCCn1cc(-c2cnc3nnn(Cc4ccc5ncccc5c4)c3n2)cn1 + C=CCn1c(=O)c2cnc(Nc3ccc(N4CCN(C)CC4)cc3)nc2n1-c1cccc(C(C)(C)O)n1 [MK1775] reads inactive: 0.154
